Among the data in PubChem BioAssay AID493014 (National Center for Advancing Translational Sciences (NCATS), 2011) are AC50 values, retold here.

The assay is described as follows: qHTS Assay to Find Inhibitors of Chronic Active B-Cell Receptor Signaling. To be noted: ABC-DLBCL IkBa-CBG/CBR reporter, luminescence ratio (green luciferase fused to IkBa over red control in TMD8 lymphoma cells), 4 h. In outline:
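Doxycycline induced both beetle luciferases in TMD8 lymphoma cells; IKK-driven degradation limits the IkappaBalpha-fused green signal, while red luminescence normalises for cell number and nonspecific effects. Compounds tested up to 46 uM, 4 hrs.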

The mark [1] stands for this setting: measured here: CBR red luminescence, cell number.
The mark [2] stands for this setting: measured here: IkBa-CBG green luminescence.

The list shows a part of the results. Further columns of the screen follow, without active or inactive calls. Compounds called inactive in the main read-out are mostly missing here. The note in brackets gives the kind of curve behind each potency; many fits are weak.

Take `O=C(c1ccc(Oc2ccc(C(F)(F)F)cn2)cc1)N1CCN(c2ccccc2)CC1`: under setting [1], the AC50 was 17.8 µM [falling, single point].
For `COc1ccc(N2C(=S)NC3c4cc(Cl)ccc4OC2(C)C3C(=O)N(C)C)cc1` (stereo not drawn), the AC50 under setting [1] was 35.5 µM [falling, single point].
Regarding `OC1CCN(c2c3c(nc4cc(-c5cccc(F)c5)nn24)CCCC3)CC1`, the half-maximal activity concentration (AC50) under setting [1] was 9.2 µM [falling, partial curve, poor fit].
The same measure, in the same setting: in the case of `CCc1nnc(SCC(=O)NC2CCCCC2)nc1CC` it was 0.58 µM [falling, partial curve, poor fit]; in that of `Fc1ccc2nc(N3CCCCC3)sc2c1`, 15.8 µM [rising, single point]; in that of `CC1CCCN(C(=O)COC(=O)COc2ccc(C#N)cc2)C1` (stereo not drawn), 5.17 µM [rising, single point].
`COC(=O)CCCCCc1ccc(C(C)=O)s1`: the AC50 under setting [1] is 0.082 µM [rising, full curve, poor fit].
For the molecule `Cc1ccccc1-n1nnnc1-c1ccccc1`, under setting [1], the AC50 was 12.6 µM [rising, partial curve, poor fit].
For `COc1ccc(-c2nn(-c3ccccc3)cc2/C=N/Nc2ccccn2)cc1OC`, the AC50 under setting [1] was 1.64 µM [falling, full curve].
For the molecule `Nc1nc(-c2ccccc2)c(N=Nc2ccccc2Cl)s1`, under setting [1], the AC50 was 29.1 µM [rising, single point].
On to `O=C(N/N=C/c1ccc(N2CCOCC2)s1)c1ccccc1Cl`, for which the half-maximal activity concentration (AC50) under setting [1] was 12.6 µM [falling, partial curve, poor fit].
As to `C#Cc1ccc([C@H]2C=C(C(=O)Nc3ccccc3)O[C@@H](OCc3ccc(CO)cc3)C2)cc1`, the AC50 under setting [1] was 2.24 µM [rising, single point].
With `CCN(CC)c1ccc(/C=C(/C#N)C(=O)NCc2ccccc2)o1`, the AC50 under setting [1] is 0.58 µM [rising, full curve, poor fit].
As for `O=C(Nc1ccc([N+](=O)[O-])cn1)c1ccc(Br)o1`, the half-maximal activity concentration (AC50) under setting [1] is 23.1 µM [falling, single point].
Take `C=C(C)CSc1nc(N)c2c3c(sc2n1)CCC3`: the AC50 under setting [1] is 0.708 µM [rising, partial curve, poor fit].
For `Nc1nc(Cl)c(C=O)c(N2CCCCC2)n1`, the AC50 under setting [1] is 20 µM [falling, single point] and the AC50 under setting [2] is 12.6 µM [rising, partial curve, poor fit].
For the molecule `O=C(O)CCC(=O)Nc1ccc(N=Nc2ccccc2)cc1`, under setting [1], the AC50 was 20 µM [falling, single point].
In the case of `C/C(=N\NC(=O)c1cccs1)C(C)(C)C`, the AC50 by setting is: under setting [1], 18.4 µM [falling, partial curve]; under setting [2], 25.9 µM [falling, single point].
For the molecule `CCOc1ccccc1N1CCN(S(=O)(=O)c2cccc3nsnc23)CC1`, the AC50 under setting [1] was 1.46 µM [falling, full curve, poor fit].
For `CCn1c2ccccc2c2cc(NC(=O)c3cccc(OC)c3OC)ccc21`, under setting [1], the AC50 is 1.64 µM [rising, full curve].
Still for that read-out and setting: with `Cc1ccc(NC(=O)CN2C=NS(=O)(=O)c3ccccc32)cc1` the figure was 4.47 µM [falling, full curve, poor fit].
As to `Nc1nonc1-n1nnc(C(=O)N/N=C/C=C/c2ccccc2)c1CSC1=NCCS1`, the AC50 under setting [1] was 10 µM [falling, partial curve, poor fit].
Take `C[C@@H]1CN([C@@H](C)CO)C(=O)c2cccc(NC(=O)Nc3ccc(F)cc3)c2O[C@@H]1CN(C)Cc1ccc(Oc2ccccc2)cc1`: under setting [1], the half-maximal activity concentration (AC50) was 13 µM [falling, partial curve, poor fit].
For `Cc1ccc(NC(=O)c2ccc(=O)n(CC(=O)Nc3ccccc3)n2)cc1`, the AC50 under setting [1] was 0.1 µM [rising, full curve, poor fit].
`Cc1csc(SCC(=O)NCc2ccc3c(c2)OCO3)n1`: under setting [1], the AC50 is 22.4 µM [rising, single point].
For the molecule `O=C1CSC(c2cn(-c3ccccc3)nc2-c2ccccc2)N1Cc1ccco1` (stereo not drawn), the AC50 under setting [1] was 7.31 µM [falling, partial curve, poor fit].
With `Cc1ccc(S(=O)(=O)N2CCN(C(C)C(=O)NCC(C)c3ccccc3)CC2)cc1` (stereo not drawn), the AC50 under setting [1] is 6.51 µM [falling, single point].
On to `Nc1nc(CCl)nc(Nc2cccc3ccccc23)n1`, for which the AC50 under setting [1] was 17.8 µM [falling, partial curve, poor fit].
In the case of `CC(OC(=O)c1ccc(O)cc1)C(=O)Nc1cc(C(F)(F)F)ccc1Cl` (stereo not drawn), the AC50 under setting [1] was 2 µM [falling, partial curve, poor fit].
Consider `CCCc1nnc2n1N=C(c1ccc(C)cc1)CS2`, for which the AC50 under setting [1] is 20 µM [falling, single point].
Regarding `Cc1ccc(N=CC=C2OC(C)(C)C(C)(C)O2)cc1`, under setting [1], the AC50 was 6.51 µM [falling, partial curve, poor fit].
Same read-out and setting: in the case of `N#C/C(=N\Nc1ccc([N+](=O)[O-])cc1)C(=N)N1CCOCC1` it was 0.1 µM [rising, full curve, poor fit]; in that of `O=C(NNc1c2ccccc2nc2ccccc12)c1ccccc1O`, 16.4 µM [falling, single point]; in that of `COc1ccc(CNC(=O)C(CCSC)NS(=O)(=O)c2ccccc2F)cc1` (stereo not drawn), 25.1 µM [rising, single point].
On the same count and under the same terms, in the case of `N#Cc1nc(-c2cccc3ccccc23)oc1NCCN1CCCCC1` it was 5.8 µM [rising, single point].
Turning to `COc1cccc(NC(=O)CN(C)C(=O)c2ccc(S(=O)(=O)Nc3ccccc3F)cc2)c1`, the AC50 by setting is: under setting [1], 6.51 µM [rising, single point]; under setting [2], 6.51 µM [falling, single point].
As for `CC1(C)NC(=O)N(CNc2cc(Cl)ccc2Cl)C1=O`, the concentration at half-maximal activity (AC50) under setting [1] is 0.366 µM [falling, partial curve, poor fit].
Take `CCN=C1S/C(=C\c2cn(CC(=O)NCc3ccco3)c3ccccc23)C(=O)N1CC`: the AC50 under setting [1] is 2.51 µM [falling, partial curve, poor fit].
Consider `Oc1ccc(-c2[nH]ncc2-c2nc3ccccc3s2)c(O)c1`, for which, under setting [1], the AC50 is 35.5 µM [falling, single point].
Consider `CNC(=S)N(Cc1ccc(OC)cc1)C1CC(=O)N(c2ccc(Cl)cc2)C1=O` (stereo not drawn), for which, under setting [1], the AC50 was 12.6 µM [falling, partial curve, poor fit].
As to `Fc1cccc(CSc2nnc3ccc(-c4ccncc4)nn23)c1`, the AC50 under setting [1] was 35.5 µM [falling, single point].
As to `O=C(O)/C=C/c1ccc(S(=O)(=O)Nc2ccc3[nH]c(=O)[nH]c3c2)cc1`, under setting [1], the AC50 is 35.5 µM [falling, single point].
Regarding `O=C(/C=C\Nc1ccccn1)c1ccc(Cl)cc1`, the AC50 under setting [1] was 2 µM [falling, full curve].
With `O=C(N/N=C/c1cccc(O)c1)c1ccc(COc2ccccc2Br)cc1`, the AC50 under setting [1] is 29.1 µM [falling, single point].
For `COC(=O)CCCn1c(C)cc(C(=O)CCl)c1C`, the concentration at half-maximal activity (AC50) under setting [1] is 14.1 µM [falling, single point].
Same read-out and setting: with `CC(=O)c1cc(CC=C(C)C)c(O)c(CC=C(C)C)c1O` the figure was 20 µM [rising, single point]; with `c1ccc(-c2ccc(-c3ccccn3)s2)nc1`, 17.8 µM [falling, single point]; with `COc1ccnc(CSC(N)=Nc2ccc(F)cc2)c1`, 25.9 µM [falling, single point].
`COc1ccc(C(=O)c2c(NC(C)=O)sc3c2CCN(C(=O)OC(C)(C)C)C3)cc1`: the AC50 under setting [1] is 1.58 µM [rising, partial curve, poor fit].
For `O=c1[nH]c2ccc(Cl)cc2c(-c2ccccc2)c1SC(=S)N1CCOCC1`, the concentration at half-maximal activity (AC50) under setting [1] is 14.6 µM [falling, single point].
`O=C(COC(=O)Cn1cnc2ccccc21)NCCC1=CCCCC1`: under setting [1], the half-maximal activity concentration (AC50) was 29.1 µM [rising, single point].
Take `Cc1nn(-c2ccccc2)c(N)c1N=Nc1cccnc1`: the AC50 runs as follows: under setting [1], 2.82 µM [rising, partial curve, poor fit]; under setting [2], 12.6 µM [falling, partial curve, poor fit].
`COCCn1c(C)cc(C(=O)COC(=O)/C=C/c2ccc(OC)cc2OC)c1C`: the AC50 under setting [1] was 4.11 µM [rising, partial curve, poor fit].
As to `CCCOc1ccc(C(=O)NNC(=S)NC(=O)c2ccco2)cc1`, the concentration at half-maximal activity (AC50) was 35.5 µM [rising, single point] under setting [1] and 35.5 µM [falling, single point] under setting [2].
With `COc1ccccc1NC(=O)Nc1nc(CC(=O)N2CCN(c3ccccc3OC)CC2)cs1`, the AC50 under setting [1] was 29.1 µM [falling, single point].
Turning to `Cc1ccc(OCCC(=O)OCC(=O)Nc2cc(C)cc(C)c2)cc1`, the AC50 under setting [1] is 14.1 µM [falling, single point].
For `CCC(=O)Nc1c(-c2ccccc2)c(=O)c2ccccc2n1C`, under setting [1], the concentration at half-maximal activity (AC50) was 4.47 µM [falling, partial curve].
For the molecule `Cc1cc(C)n(-c2nc3ccccc3c(=O)n2OCC(C)C)n1`, the AC50 under setting [1] is 5.62 µM [rising, single point].
As for `O=C(c1cc2n(n1)C(C(F)(F)F)CC(c1ccc(Cl)cc1)N2)N1CCCC1` (stereo not drawn), the AC50 reads like this: under setting [1], 6.51 µM [falling, single point]; under setting [2], 3.66 µM [rising, partial curve, poor fit].
For the molecule `CCOC(=O)Oc1c(OC)cc(C(=O)O[C@@H]2C[C@@H]3CN4CCc5c([nH]c6cc(OC)ccc56)[C@H]4C[C@@H]3[C@H](C(=O)OC)[C@H]2OC)cc1OC`, the AC50 under setting [1] was 13 µM [falling, partial curve, poor fit].
The same measure, in the same setting: in the case of `Cc1ccc(CSc2nc3ccccc3c(=O)[nH]2)cc1` it was 3.55 µM [rising, single point]; in that of `Cn1c(SCC(=O)N/N=C/C=C/c2ccccc2[N+](=O)[O-])nc2ccccc21`, 10.3 µM [rising, partial curve].
